# The supplement of paper PMC12067093, “Discovery and optimisation of a covalent ligand for TRIM25 and its application to targeted protein ubiquitination” (Chemical Science, 2025)
# Amino acid sequences for entries named in this document (tags omitted). A change or cut given only in a name is not applied to a line headed by its entry.
# UniProt O43741: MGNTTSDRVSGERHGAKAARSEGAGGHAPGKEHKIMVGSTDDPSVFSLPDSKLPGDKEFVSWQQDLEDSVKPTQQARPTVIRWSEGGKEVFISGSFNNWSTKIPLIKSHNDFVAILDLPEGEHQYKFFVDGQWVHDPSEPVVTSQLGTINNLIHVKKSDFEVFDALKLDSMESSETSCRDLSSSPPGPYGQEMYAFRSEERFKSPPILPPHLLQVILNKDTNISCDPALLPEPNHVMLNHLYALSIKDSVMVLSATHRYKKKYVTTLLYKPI
# UniProt P78527, whole entry, looked up: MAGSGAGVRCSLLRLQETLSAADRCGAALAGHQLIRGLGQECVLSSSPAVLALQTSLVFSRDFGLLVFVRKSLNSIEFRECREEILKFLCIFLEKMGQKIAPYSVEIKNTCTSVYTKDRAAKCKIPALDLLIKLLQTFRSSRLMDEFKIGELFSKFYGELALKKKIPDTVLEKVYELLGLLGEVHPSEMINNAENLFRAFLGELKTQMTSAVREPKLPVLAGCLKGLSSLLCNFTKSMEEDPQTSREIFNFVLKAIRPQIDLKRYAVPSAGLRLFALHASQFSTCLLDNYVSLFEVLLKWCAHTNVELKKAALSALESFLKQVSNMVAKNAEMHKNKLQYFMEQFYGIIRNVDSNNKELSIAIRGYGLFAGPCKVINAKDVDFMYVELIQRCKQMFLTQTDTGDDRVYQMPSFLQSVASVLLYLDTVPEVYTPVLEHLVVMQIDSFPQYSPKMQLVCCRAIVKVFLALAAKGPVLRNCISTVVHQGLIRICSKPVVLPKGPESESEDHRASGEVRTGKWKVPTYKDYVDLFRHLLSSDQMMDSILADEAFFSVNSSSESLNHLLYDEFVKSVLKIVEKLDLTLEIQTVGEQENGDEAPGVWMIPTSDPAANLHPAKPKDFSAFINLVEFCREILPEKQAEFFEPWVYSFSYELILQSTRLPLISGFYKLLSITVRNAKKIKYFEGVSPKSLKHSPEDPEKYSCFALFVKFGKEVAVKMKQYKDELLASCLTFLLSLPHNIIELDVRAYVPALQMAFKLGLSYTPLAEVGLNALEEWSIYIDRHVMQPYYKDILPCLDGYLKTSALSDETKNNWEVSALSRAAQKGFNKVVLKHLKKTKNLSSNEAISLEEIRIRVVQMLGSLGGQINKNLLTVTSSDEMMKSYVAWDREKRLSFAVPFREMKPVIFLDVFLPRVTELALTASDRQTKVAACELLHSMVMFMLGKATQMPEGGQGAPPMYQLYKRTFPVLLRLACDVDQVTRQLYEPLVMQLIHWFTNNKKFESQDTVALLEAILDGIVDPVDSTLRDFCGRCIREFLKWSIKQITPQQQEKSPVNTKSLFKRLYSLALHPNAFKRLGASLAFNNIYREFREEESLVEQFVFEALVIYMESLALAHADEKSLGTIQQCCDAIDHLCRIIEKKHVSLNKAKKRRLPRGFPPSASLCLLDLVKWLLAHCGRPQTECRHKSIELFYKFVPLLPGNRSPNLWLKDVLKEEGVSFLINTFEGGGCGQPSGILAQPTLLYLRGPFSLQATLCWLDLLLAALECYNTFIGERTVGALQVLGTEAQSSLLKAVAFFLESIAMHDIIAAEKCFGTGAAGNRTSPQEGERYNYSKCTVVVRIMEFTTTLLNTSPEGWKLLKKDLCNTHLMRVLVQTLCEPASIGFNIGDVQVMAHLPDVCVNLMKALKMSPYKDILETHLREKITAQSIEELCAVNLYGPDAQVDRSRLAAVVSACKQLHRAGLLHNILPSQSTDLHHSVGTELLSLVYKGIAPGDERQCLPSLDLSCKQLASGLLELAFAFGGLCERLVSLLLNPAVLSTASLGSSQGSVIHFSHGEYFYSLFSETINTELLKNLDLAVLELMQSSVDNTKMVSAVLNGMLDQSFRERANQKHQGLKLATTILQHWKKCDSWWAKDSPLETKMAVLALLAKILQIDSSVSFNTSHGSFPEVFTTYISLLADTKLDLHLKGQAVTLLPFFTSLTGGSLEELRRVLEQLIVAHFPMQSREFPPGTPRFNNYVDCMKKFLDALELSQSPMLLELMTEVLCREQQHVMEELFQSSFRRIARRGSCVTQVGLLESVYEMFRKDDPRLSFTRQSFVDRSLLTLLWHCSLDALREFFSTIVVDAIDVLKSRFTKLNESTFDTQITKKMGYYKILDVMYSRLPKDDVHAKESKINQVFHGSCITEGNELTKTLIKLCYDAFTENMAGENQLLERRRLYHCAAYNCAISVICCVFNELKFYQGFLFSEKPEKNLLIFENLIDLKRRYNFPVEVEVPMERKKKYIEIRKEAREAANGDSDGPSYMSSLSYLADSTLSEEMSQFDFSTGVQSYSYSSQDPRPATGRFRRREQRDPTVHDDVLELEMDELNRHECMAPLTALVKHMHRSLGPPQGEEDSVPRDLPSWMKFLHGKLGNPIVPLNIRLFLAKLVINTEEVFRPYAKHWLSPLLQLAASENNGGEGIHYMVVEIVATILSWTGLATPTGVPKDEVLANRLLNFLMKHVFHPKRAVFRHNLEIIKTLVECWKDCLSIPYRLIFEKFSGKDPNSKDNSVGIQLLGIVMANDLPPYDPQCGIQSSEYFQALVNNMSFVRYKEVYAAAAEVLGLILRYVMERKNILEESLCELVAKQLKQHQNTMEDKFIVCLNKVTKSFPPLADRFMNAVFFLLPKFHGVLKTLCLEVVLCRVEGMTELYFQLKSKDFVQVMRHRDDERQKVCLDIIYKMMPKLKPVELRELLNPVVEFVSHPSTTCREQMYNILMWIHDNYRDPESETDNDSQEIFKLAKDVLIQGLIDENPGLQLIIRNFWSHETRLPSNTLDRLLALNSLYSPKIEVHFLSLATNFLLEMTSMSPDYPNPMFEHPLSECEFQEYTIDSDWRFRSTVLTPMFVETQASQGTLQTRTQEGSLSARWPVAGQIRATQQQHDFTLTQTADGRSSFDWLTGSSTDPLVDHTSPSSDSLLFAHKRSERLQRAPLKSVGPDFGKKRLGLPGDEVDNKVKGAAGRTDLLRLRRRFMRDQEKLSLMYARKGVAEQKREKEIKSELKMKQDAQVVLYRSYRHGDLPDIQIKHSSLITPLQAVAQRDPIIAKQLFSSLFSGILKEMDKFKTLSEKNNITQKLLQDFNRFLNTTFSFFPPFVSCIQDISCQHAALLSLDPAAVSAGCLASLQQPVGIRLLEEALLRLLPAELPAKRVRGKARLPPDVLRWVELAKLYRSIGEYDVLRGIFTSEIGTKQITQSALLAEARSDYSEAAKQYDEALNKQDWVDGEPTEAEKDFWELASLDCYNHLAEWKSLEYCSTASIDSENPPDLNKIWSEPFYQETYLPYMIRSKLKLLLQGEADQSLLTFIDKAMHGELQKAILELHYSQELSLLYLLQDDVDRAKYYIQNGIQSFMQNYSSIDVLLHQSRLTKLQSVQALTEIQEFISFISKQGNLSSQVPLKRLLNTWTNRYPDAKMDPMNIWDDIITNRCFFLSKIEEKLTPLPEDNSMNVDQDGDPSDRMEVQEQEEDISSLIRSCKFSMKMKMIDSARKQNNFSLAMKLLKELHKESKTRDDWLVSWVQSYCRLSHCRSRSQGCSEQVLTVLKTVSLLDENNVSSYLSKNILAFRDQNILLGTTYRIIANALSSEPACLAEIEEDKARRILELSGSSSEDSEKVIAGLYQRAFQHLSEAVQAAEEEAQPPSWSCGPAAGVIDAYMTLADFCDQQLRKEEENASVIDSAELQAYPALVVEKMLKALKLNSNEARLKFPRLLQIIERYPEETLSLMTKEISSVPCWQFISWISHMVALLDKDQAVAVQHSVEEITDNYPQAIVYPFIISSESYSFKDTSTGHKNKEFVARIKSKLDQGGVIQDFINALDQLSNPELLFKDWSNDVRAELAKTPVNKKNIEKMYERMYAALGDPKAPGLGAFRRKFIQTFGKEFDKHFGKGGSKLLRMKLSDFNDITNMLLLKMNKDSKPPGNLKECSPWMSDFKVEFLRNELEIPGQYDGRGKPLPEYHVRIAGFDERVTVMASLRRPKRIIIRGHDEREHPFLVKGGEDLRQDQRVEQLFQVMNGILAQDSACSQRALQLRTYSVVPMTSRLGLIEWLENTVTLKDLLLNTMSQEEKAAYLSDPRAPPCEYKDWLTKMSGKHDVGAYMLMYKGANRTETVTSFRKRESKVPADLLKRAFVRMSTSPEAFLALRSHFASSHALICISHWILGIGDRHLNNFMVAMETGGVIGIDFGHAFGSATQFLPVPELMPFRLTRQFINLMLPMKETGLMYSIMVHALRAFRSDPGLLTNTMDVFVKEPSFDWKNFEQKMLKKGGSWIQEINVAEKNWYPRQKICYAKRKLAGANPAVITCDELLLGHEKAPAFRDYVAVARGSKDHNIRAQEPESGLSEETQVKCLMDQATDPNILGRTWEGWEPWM
# UniProt O94906: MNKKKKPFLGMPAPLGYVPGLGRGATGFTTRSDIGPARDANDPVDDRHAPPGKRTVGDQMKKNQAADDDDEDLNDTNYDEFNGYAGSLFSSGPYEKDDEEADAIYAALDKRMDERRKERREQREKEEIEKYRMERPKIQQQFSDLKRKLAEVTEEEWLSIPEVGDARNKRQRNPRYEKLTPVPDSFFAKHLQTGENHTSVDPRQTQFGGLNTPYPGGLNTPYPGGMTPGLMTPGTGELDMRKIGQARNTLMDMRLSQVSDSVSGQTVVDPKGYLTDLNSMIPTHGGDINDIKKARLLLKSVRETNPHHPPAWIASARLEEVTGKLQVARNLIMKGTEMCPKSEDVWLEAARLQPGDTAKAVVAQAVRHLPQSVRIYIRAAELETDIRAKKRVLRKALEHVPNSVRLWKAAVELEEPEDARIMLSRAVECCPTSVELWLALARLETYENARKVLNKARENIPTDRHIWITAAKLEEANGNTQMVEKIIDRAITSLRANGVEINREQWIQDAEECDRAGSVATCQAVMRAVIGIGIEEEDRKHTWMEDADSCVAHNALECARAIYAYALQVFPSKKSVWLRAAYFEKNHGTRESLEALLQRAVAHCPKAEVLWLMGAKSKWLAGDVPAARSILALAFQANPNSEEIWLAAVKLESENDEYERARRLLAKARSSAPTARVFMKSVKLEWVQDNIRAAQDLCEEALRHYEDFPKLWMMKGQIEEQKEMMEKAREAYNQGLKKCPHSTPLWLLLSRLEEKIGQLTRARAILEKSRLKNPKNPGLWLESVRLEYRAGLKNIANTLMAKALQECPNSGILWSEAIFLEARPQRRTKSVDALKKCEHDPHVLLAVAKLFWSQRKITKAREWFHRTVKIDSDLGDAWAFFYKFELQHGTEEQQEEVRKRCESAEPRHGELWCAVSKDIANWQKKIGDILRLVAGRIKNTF
# UniProt Q6P2P2: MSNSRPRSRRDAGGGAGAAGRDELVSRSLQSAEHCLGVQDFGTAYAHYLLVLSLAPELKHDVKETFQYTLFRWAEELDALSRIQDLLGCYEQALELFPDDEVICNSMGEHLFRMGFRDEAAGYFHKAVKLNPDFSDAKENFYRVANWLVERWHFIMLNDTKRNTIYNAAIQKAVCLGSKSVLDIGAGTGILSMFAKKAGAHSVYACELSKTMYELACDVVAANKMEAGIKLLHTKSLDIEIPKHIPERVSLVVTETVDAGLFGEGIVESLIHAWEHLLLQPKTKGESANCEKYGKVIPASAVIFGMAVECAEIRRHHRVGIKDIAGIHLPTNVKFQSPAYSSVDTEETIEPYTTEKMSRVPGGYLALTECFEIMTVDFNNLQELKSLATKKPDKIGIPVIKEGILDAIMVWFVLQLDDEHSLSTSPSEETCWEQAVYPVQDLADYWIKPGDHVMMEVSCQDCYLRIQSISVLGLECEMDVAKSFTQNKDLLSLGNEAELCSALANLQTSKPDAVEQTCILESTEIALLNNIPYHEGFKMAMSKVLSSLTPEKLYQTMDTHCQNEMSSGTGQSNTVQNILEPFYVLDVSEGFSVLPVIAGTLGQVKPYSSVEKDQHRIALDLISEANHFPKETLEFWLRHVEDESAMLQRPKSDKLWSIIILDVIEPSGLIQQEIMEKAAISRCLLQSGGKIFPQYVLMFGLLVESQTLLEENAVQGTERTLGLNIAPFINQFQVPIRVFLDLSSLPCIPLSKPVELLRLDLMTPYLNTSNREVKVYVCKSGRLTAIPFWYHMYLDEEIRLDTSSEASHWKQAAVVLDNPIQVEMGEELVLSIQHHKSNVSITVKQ
# UniProt P13861, whole entry, looked up: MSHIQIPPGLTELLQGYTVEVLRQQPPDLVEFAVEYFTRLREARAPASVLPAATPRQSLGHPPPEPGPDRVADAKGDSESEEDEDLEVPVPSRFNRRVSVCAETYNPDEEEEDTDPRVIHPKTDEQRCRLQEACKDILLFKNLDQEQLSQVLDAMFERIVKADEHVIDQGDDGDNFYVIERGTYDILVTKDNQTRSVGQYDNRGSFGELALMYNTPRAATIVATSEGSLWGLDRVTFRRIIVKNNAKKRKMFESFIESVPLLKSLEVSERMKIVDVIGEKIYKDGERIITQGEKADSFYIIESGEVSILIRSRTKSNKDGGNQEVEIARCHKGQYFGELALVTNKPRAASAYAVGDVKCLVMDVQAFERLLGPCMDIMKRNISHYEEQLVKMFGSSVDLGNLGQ
# The list shows a part of the results.
# Compound: CC1Cc2ccccc2N1C(=O)C1CCCN(C1)C(=O)CCl (mixture of isomers) [TRIM25 ligand 11 (diastereomer mixture)]
# Assay: probe-labelled cysteine peptide fold change vs DMSO (competition) (log2 fold change); higher = less target engagement (more negative = stronger competition)
# Conditions: THP-1, incubation time: 4 h
# 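Further: competitive chemoproteomic profiling in live THP-1 cells with an iodoacetamide desthiobiotin (IA-DTB) probe, comparing probe-labelled peptide intensities in compound-treated cells against DMSO-treated controls.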
Target,probe-labelled cysteine peptide fold change (10 µM),probe-labelled cysteine peptide fold change (50 µM)
PRKCB_P05771_217_CSLNPEWNETFR (UniProt P05771),-0.00427,0.0176
PRPS1_P60891_41_KFSNQETCVEIGESVR (UniProt P60891),0.239,0.134
PRKAB2_O43741_225_DTNISCDPALLPEPNHVMLNHLYALSIK (UniProt O43741),-0.0811,0.0742
PRPF8_Q6P2Q9_2216+2223_TIIITCSFTPGSCTLTAYK (UniProt Q6P2Q9),-0.318,-0.2
PRKDC_P78527_1742_FNNYVDCMK (UniProt P78527),0.122,0.0251
PRPF6_O94906_550+558_HTWMEDADSCVAHNALECAR (UniProt O94906),-0.165,-0.0822
PRKDC_P78527_232_GLSSLLCNFTK (UniProt P78527),-0.0882,-0.0572
PRPF6_O94906_837_CEHDPHVLLAVAK (UniProt O94906),-0.0144,-0.182
PRMT9_Q6P2P2_747_VFLDLSSLPCIPLSKPVELLR (UniProt Q6P2P2),-0.26,-0.0643
PRKAR2A_P13861_134_LQEACK (UniProt P13861),-0.0221,-0.157
PRMT9_Q6P2P2_476_IQSISVLGLECEMDVAK (UniProt Q6P2P2),-0.0169,-0.0155
PRKDC_P78527_4061_LAGANPAVITCDELLLGHEK (UniProt P78527),-0.0993,-0.0896
